From publication PMC11139976
No constants are given. Whether binding was seen depends on the method and setting. Binding seen in cells or lysates may run through a third protein. Some results given as binding are weak or reduced against the parent protein; the word gives no strength.

Chains of the proteins cited; added tags and fusions are not shown.
UniProt P50750: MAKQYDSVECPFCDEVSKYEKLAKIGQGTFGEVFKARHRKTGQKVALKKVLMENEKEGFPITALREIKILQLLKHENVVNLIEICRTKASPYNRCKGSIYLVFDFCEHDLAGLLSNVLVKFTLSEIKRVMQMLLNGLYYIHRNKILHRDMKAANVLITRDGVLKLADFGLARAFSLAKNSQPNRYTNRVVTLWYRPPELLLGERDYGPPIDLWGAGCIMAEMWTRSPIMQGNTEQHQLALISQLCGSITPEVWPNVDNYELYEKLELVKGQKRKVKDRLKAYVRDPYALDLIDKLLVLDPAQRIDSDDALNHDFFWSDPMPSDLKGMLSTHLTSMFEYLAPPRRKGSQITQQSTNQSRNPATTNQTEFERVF
UniProt O94992: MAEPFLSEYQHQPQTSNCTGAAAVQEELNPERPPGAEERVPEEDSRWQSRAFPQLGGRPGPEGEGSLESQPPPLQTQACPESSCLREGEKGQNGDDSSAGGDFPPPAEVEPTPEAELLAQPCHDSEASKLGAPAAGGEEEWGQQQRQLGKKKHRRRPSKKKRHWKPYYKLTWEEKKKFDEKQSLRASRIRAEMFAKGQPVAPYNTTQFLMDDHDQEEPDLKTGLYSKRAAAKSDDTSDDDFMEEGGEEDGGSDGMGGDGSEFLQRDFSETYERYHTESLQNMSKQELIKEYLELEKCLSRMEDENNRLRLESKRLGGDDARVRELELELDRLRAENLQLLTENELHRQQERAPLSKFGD

Target: CDK9 (human (endogenous in SU-DIPG4)) (UniProt P50750)
Test: co-IP; SU-DIPG4 whole cell extracts (500 ug), precleared, immunoprecipitated with 7 ug anti-CDK9 antibody or rabbit IgG, 4 h at 4 degrees, protein G magnetic beads, immunoblot; cells before and 4 h after 6 Gy IR

Molecule: HEXIM1 (from UniProt O94992 1-359)
- binding: binds

B1: LARP7 (protein, UniProt Q4G0J3 1-582)
chain: METESGNQEKVMEEESTEKKKEVEKKKRSRVKQVLADIAKQVDFWFGDANLHKDRFLREQIEKSRDGYVDISLLVSFNKMKKLTTDGKLIARALRSSAVVELDLEGTRIRRKKPLGERPKDEDERTVYVELLPKNVNHSWIERVFGKCGNVVYISIPHYKSTGDPKGFAFVEFETKEQAAKAIEFLNNPPEEAPRKPGIFPKTVKNKPIPALRVVEEKKKKKKKKGRMKKEDNIQAKEENMDTSNTSISKMKRSRPTSEGSDIESTEPQKQCSKKKKKRDRVEASSLPEVRTGKRKRSSSEDAESLAPRSKVKKIIQKDIIKEASEASKENRDIEISTEEEKDTGDLKDSSLLKTKRKHKKKHKERHKMGEEVIPLRVLSKSEWMDLKKEYLALQKASMASLKKTISQIKSESEMETDSGVPQNTGMKNEKTANREECRTQEKVNATGPQFVSGVIVKIISTEPLPGRKQVRDTLAAISEVLYVDLLEGDTECHARFKTPEDAQAVINAYTEINKKHCWKLEILSGDHEQRYWQKILVDRQAKLNQPREKKRGTEKLITKAEKIRLAKTQQASKHIRFSEYD
- binding: binds

B2: MEPCE (protein, UniProt Q7L2J0 1-689)
chain: MIEMAAEKEPFLVPAPPPPLKDESGGGGGPTVPPHQEAASGELRGGTERGPGRCAPSAGSPAAAVGRESPGAAATSSSGPQAQQHRGGGPQAQSHGEARLSDPPGRAAPPDVGEERRGGGGTELGPPAPPRPRNGYQPHRPPGGGGGKRRNSCNVGGGGGGFKHPAFKRRRRVNSDCDSVLPSNFLLGGNIFDPLNLNSLLDEEVSRTLNAETPKSSPLPAKGRDPVEILIPKDITDPLSLNTCTDEGHVVLASPLKTGRKRHRHRGQHHQQQQAAGGSESHPVPPTAPLTPLLHGEGASQQPRHRGQNRDAPQPYELNTAINCRDEVVSPLPSALQGPSGSLSAPPAASVISAPPSSSSRHRKRRRTSSKSEAGARGGGQGSKEKGRGSWGGRHHHHHPLPAAGFKKQQRKFQYGNYCKYYGYRNPSCEDGRLRVLKPEWFRGRDVLDLGCNVGHLTLSIACKWGPSRMVGLDIDSRLIHSARQNIRHYLSEELRLPPQTLEGDPGAEGEEGTTTVRKRSCFPASLTASRGPIAAPQVPLDGADTSVFPNNVVFVTGNYVLDRDDLVEAQTPEYDVVLCLSLTKWVHLNWGDEGLKRMFRRIYRHLRPGGILVLEPQPWSSYGKRKTLTETIYKNYYRIQLKPEQFSSYLTSPDVGFSSYELVATPHNTSKGFQRPVYLFHKARSPSH
- binding: binds
